These are yes or no findings as the source states them, for the method shown. Binding seen in cells or lysates may run through a third protein. Some entries that bind do so weakly or less than the wild type.
What was measured:
[1] = biological target: recombinant C-terminal human SVEP1-Strep-tag II protein, purified (human) (UniProt Q4LDE5); test: pull-down; 3 µg purified StrepII tagged human SVEP1 C-terminus on 50 µl Strep-TactinXT 4Flow resin in binding buffer (50 mM Tris-HCl pH 7.5, 100 mM NaCl, 0.02% Triton X-100), added to lysate of TIE1-HA or TIE2-HA transfected 293T HEK cells, 2 hr; washed with Ripa buffer; anti-HA western blot; only the target purified
[2] = biological target: human SVEP1 (C-Terminus)-StrepII, co-transfected (human) (UniProt Q4LDE5); test: co-IP; 293T HEK cells co-transfected with human SVEP1 (C-terminus)-StrepII and TIE1-HA or TIE2-HA; Ripa lysates; SVEP1-StrepII captured on Strep-TactinXT 4Flow resin; five washes with Ripa buffer; anti-HA western blot

By UniProt entry, the sequences of proteins in these tests, tags left out. Residues count along the entry.
UniProt Q4LDE5, residues 2261-3571: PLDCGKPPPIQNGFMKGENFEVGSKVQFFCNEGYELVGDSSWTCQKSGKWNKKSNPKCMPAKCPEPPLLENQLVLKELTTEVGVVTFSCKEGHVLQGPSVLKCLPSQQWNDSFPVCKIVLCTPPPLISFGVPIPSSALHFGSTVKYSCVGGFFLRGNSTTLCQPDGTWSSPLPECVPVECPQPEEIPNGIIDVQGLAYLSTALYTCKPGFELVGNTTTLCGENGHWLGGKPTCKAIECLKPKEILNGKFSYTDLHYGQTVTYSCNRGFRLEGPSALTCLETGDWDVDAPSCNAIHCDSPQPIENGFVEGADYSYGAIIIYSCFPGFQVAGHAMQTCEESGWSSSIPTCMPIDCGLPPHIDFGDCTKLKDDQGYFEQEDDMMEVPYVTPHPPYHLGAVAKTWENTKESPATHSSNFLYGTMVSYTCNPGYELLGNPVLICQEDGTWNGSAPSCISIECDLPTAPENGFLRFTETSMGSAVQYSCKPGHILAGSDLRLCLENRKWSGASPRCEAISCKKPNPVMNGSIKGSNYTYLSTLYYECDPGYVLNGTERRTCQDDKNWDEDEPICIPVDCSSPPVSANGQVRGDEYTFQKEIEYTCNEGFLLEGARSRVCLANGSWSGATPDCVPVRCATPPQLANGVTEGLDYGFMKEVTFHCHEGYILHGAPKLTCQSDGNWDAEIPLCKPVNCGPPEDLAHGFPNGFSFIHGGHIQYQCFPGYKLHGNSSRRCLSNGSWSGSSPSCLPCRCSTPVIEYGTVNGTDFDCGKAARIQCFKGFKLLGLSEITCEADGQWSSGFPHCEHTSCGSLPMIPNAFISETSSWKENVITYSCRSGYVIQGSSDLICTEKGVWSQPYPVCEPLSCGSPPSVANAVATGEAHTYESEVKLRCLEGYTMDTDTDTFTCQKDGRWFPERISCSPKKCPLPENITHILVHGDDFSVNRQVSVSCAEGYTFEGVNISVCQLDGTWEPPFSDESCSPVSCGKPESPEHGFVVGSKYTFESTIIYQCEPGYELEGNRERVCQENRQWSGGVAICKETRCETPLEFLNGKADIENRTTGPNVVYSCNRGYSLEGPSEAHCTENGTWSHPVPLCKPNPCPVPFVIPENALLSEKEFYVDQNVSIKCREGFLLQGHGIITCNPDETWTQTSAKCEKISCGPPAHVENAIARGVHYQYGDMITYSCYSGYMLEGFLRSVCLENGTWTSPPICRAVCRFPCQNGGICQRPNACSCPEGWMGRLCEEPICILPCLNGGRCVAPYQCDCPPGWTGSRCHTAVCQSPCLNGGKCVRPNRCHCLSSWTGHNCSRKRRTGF
UniProt P35590, residues 21-1138: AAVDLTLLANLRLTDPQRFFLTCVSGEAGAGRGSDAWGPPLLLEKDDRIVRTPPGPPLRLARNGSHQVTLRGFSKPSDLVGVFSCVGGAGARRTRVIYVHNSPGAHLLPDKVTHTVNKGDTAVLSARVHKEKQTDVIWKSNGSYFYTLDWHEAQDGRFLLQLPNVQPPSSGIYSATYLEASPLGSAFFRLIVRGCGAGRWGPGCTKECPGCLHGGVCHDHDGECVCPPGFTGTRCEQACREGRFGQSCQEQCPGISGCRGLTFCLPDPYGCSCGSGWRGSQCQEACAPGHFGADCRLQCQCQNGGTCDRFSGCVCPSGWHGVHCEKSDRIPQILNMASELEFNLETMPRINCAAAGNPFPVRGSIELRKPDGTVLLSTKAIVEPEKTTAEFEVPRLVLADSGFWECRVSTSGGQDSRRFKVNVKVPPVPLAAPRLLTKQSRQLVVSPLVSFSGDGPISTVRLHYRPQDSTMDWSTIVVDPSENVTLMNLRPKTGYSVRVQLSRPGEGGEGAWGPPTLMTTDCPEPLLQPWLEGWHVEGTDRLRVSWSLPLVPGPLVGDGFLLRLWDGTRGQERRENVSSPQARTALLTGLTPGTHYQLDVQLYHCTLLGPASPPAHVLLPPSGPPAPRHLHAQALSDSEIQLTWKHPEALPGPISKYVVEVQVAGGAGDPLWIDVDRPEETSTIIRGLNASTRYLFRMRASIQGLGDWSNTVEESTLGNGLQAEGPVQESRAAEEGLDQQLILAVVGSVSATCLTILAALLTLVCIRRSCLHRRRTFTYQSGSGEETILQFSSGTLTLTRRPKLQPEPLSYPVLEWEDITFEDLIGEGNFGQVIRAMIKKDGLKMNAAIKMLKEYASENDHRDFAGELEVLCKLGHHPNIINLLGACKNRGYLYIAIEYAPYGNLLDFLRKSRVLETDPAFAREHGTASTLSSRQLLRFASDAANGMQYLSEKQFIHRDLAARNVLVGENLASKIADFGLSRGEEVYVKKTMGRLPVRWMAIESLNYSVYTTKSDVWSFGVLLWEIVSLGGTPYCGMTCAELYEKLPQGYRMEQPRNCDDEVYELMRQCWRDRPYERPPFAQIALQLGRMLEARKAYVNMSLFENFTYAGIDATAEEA

human TIE1-HA (from UniProt P35590-1 21-1138) (receptor)
binding [1]: binds | binding [2]: binds

Source: article PMC10129328
